Test results as given in PMC10681723.
These are yes or no findings as the source states them, for the method shown. Binding seen in cells or lysates may run through a third protein. A yes stands for co-enrichment or nearness to the bait. Other partners may have been found.

Amino acid sequences for entries named in this document (tags omitted).
UniProt P32558: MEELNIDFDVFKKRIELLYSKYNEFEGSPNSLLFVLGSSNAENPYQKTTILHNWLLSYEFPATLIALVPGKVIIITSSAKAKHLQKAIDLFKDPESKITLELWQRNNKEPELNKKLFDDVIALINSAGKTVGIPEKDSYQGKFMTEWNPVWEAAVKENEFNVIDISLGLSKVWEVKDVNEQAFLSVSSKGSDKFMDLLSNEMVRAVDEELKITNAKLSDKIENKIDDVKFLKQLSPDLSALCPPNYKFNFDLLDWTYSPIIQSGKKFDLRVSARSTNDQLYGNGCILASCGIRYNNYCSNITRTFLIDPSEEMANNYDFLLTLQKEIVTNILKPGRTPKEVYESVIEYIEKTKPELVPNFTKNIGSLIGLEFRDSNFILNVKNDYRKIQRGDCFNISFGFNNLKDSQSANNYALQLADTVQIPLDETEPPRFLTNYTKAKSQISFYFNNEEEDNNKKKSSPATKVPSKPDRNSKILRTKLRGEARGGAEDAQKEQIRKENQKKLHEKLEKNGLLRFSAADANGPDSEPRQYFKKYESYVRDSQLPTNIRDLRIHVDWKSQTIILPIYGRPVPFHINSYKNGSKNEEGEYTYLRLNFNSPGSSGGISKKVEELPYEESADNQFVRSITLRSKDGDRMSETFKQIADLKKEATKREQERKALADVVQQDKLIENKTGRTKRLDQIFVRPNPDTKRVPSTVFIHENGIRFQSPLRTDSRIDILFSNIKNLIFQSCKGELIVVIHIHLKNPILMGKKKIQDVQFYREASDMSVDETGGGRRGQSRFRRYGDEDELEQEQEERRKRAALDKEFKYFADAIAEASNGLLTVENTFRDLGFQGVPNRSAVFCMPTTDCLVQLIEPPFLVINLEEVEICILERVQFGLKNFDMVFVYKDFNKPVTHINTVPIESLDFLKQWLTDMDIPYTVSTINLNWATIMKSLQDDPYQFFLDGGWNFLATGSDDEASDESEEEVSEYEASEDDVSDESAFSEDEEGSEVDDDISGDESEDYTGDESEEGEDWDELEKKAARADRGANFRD

Molecular target: TAP-tagged Spt16 (Spt16-TAP), wild type (budding yeast (S. cerevisiae)) (UniProt P32558)
Experiment: affinity purification with mass spectrometry; tandem affinity purification of wild-type Spt16 or Spt16-ΔN from yeast cells, SDS-PAGE, label-free quantitative mass spectrometry, n = 3

binding | Binder
binds | Mcm5 (protein, UniProt P29496 1-775) MSFDRPEIYSAPVLQGESPNDDDNTEIIKSFKNFILEFRLDSQFIYRDQLRNNILVKNYSLTVNMEHLIGYNEDIYKKLSDEPSDIIPLFETAITQVAKRISILSRAQSANNNDKDPENTSMDTDSLLLNSLPTFQLILNSNANQIPLRDLDSEHVSKIVRLSGIIISTSVLSSRATYLSIMCRNCRHTTSITINNFNSITGNTVSLPRSCLSTIESESSMANESNIGDESTKKNCGPDPYIIIHESSKFIDQQFLKLQEIPELVPVGEMPRNLTMTCDRYLTNKVIPGTRVTIVGIYSIYNSKNGAGSGRSGGGNGGSGVAIRTPYIKILGIQSDVETSSIWNSVTMFTEEEEEEFLQLSRNPKLYEILTNSIAPSIFGNEDIKKAIVCLLMGGSKKILPDGMRLRGDINVLLLGDPGTAKSQLLKFVEKVSPIAVYTSGKGSSAAGLTASVQRDPMTREFYLEGGAMVLADGGVVCIDEFDKMRDEDRVAIHEAMEQQTISIAKAGITTVLNSRTSVLAAANPIYGRYDDLKSPGDNIDFQTTILSRFDMIFIVKDDHNEERDISIANHVINIHTGNANAMQNQQEENGSEISIEKMKRYITYCRLKCAPRLSPQAAEKLSSNFVTIRKQLLINELESTERSSIPITIRQLEAIIRITESLAKLELSPIAQERHVDEAIRLFQASTMDAASQDPIGGLNQASGTSLSEIRRFEQELKRRLPIGWSTSYQTLRREFVDTHRFSQLALDKALYALEKHETIQLRHQGQNIYRSGV
binds | Mcm4 (protein, UniProt P30665 1-933) MSQQSSSPTKEDNNSSSPVVPNPDSVPPQLSSPALFYSSSSSQGDIYGRNNSQNLSQGEGNIRAAIGSSPLNFPSSSQRQNSDVFQSQGRQGRIRSSASASGRSRYHSDLRSDRALPTSSSSLGRNGQNRVHMRRNDIHTSDLSSPRRIVDFDTRSGVNTLDTSSSSAPPSEASEPLRIIWGTNVSIQECTTNFRNFLMSFKYKFRKILDEREEFINNTTDEELYYIKQLNEMRELGTSNLNLDARNLLAYKQTEDLYHQLLNYPQEVISIMDQTIKDCMVSLIVDNNLDYDLDEIETKFYKVRPYNVGSCKGMRELNPNDIDKLINLKGLVLRSTPVIPDMKVAFFKCNVCDHTMAVEIDRGVIQEPARCERIDCNEPNSMSLIHNRCSFADKQVIKLQETPDFVPDGQTPHSISLCVYDELVDSCRAGDRIEVTGTFRSIPIRANSRQRVLKSLYKTYVDVVHVKKVSDKRLDVDTSTIEQELMQNKVDHNEVEEVRQITDQDLAKIREVAAREDLYSLLARSIAPSIYELEDVKKGILLQLFGGTNKTFTKGGRYRGDINILLCGDPSTSKSQILQYVHKITPRGVYTSGKGSSAVGLTAYITRDVDTKQLVLESGALVLSDGGVCCIDEFDKMSDSTRSVLHEVMEQQTISIAKAGIITTLNARSSILASANPIGSRYNPNLPVTENIDLPPPLLSRFDLVYLVLDKVDEKNDRELAKHLTNLYLEDKPEHISQDDVLPVEFLTMYISYAKEHIHPIITEAAKTELVRAYVGMRKMGDDSRSDEKRITATTRQLESMIRLAEAHAKMKLKNVVELEDVQEAVRLIRSAIKDYATDPKTGKIDMNLVQTGKSVIQRKLQEDLSREIMNVLKDQASDSMSFNELIKQINEHSQDRVESSDIQEALSRLQQEDKVIVLGEGVRRSVRLNNRV
binds | Snt1 (protein, UniProt P25357 1-1226) MGYPPPTRRLGDKKRYHYSNNPNRRHPSAVYSKNSFPKSSNNGFVSSPTADNSTNPSVTPSTASVPLPTAAPGSTFGIEAPRPSRYDPSSVSRPSSSSYSSTRKIGSRYNPDVERSSSTTSSTPESMNTSTITHTNTDIGNSRYSRKTMSRYNPQSTSSTNVTHFPSALSNAPPFYVANGSSRRPRSMDDYSPDVTNKLETNNVSSVNNNSPHSYYSRSNKWRSIGTPSRPPFDNHVGNMTTTSNTNSIHQREPFWKANSTTILKSTHSQSSPSLHTKKFHDANKLDKPEASVKVETPSKDETKAISYHDNNFPPRKSVSKPNAPLEPDNIKVGEEDALGKKEVHKSGREIAKEHPTPVKMKEHDELEARAKKVSKINIDGKQDEIWTTAKTVASAVEVSKESQKELTRSVERKESPEIRDYERAYDPKALKTDVTKLTVDNDNKSYEEPLEKVEGCIFPLPKAETRLWELKNQKRNKIISEQKYLLKKAIRNFSEYPFYAQNKLIHQQATGLILTKIISKIKKEEHLKKINLKHDYFDLQKKYEKECEILTKLSENLRKEEIENKRKEHELMEQKRREEGIETEKEKSLRHPSSSSSSRRRNRADFVDDAEMENVLLQIDPNYKHYQAAATIPPLILDPIRKHSYKFCDVNNLVTDKKLWASRILKDASDNFTDHEHSLFLEGYLIHPKKFGKISHYMGGLRSPEECVLHYYRTKKTVNYKQLLIDKNKKRKMSAAAKRRKRKERSNDEEVEVDESKEESTNTIEKEEKSENNAEENVQPVLVQGSEVKGDPLGTPEKVENMIEQRGEEFAGELENAERVNDLKRAHDEVGEESNKSSVIETNNGVQIMDPKGAVQNGYYPEETKELDFSLENALQRKKHKSAPEHKTSYWSVRESQLFPELLKEFGSQWSLISEKLGTKSTTMVRNYYQRNAARNGWKLLVDETDLKRDGTSSESVQQSQILIQPERPNINAYSNIPPQQRPALGYFVGQPTHGHNTSISSIDGSIRPFGPDFHRDTFSKISAPLTTLPPPRLPSIQFPRSEMAEPTVTDLRNRPLDHIDTLADAASSVTNNQNFSNERNAIDIGRKSTTISNLLNNSDRSMKSSFQSASRHEAQLEDTPSMNNIVVQEIKPNITTPRSSSISALLNPVNGNGQSNPDGRPLLPFQHAISQGTPTFPLPAPRTSPISRAPPKFNFSNDPLAALAAVASAPDAMSSFLSKKENNN
